# Reference: the supplement of paper PMC10689618
# Where a name gives a salt, the structure may show the parent alone. This is one part of the list. Single values are uncertain, as repeats are few or missing.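 Labelled rat cortical synaptosomes were engulfed by primary human fetal astrocytes. Engulfment equaled a red/green ratio, corrected for calcein live-cell signal and normalized to the plate median. Compounds were toxic when calcein dropped over 30%, and reduced phagocytosis when below 70% of the median above 5 µM.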
# Tests used:
# Conditions in all cases: 24 h
# Human fetal astrocytes [1] = assay: loss of total cells relative to no-compound high-control median (toxicity); higher = more toxic (fewer cells)
# Human fetal astrocytes [2] = assay: synaptosome phagocytosis (pHrodo/calcein intensity ratio) relative to plate median of data wells; higher = more phagocytosis
# Human fetal astrocytes [3] = assay: loss of total cells relative to no-compound high-control median (toxicity); higher = more toxic (fewer cells); remark: listed apart in the source
# Human fetal astrocytes [4] = assay: synaptosome phagocytosis (pHrodo/calcein intensity ratio) relative to plate median of data wells; higher = more phagocytosis; remark: listed apart in the source
Structure (SMILES),loss of total cells (Human fetal astrocytes [1]; 1.39 µM) [%],loss of total cells (Human fetal astrocytes [1]; 2.78 µM) [%],loss of total cells (Human fetal astrocytes [1]; 5.56 µM) [%],loss of total cells (Human fetal astrocytes [1]; 11.11 µM) [%],loss of total cells (Human fetal astrocytes [1]; 22.22 µM) [%],synaptosome phagocytosis (Human fetal astrocytes [2]; 1.39 µM) [%],synaptosome phagocytosis (Human fetal astrocytes [2]; 2.78 µM) [%],synaptosome phagocytosis (Human fetal astrocytes [2]; 5.56 µM) [%],synaptosome phagocytosis (Human fetal astrocytes [2]; 11.11 µM) [%],synaptosome phagocytosis (Human fetal astrocytes [2]; 22.22 µM) [%],loss of total cells (Human fetal astrocytes [3]; 1.39 µM) [%],loss of total cells (Human fetal astrocytes [3]; 2.78 µM) [%],loss of total cells (Human fetal astrocytes [3]; 5.56 µM) [%],loss of total cells (Human fetal astrocytes [3]; 11.11 µM) [%],loss of total cells (Human fetal astrocytes [3]; 22.22 µM) [%],synaptosome phagocytosis (Human fetal astrocytes [4]; 1.39 µM) [%],synaptosome phagocytosis (Human fetal astrocytes [4]; 2.78 µM) [%],synaptosome phagocytosis (Human fetal astrocytes [4]; 5.56 µM) [%],synaptosome phagocytosis (Human fetal astrocytes [4]; 11.11 µM) [%],synaptosome phagocytosis (Human fetal astrocytes [4]; 22.22 µM) [%]
C[C@H]1O[C@H](O[C@H]2[C@H](O)[C@@H](O)[C@@H](O)[C@H](O)[C@@H]2O)[C@@H](N)C[C@@H]1NC(=N)C(=O)O,1.8,-0.4,8,5.4,0.8,89.7,113,96,125,153,,,,,,,,,,
CC1(C)C2CC(=O)[C@]3(C)C(CC[C@@]4(C)[C@H](c5ccoc5)OC(=O)C5OC543)[C@@]2(C)[C@@H](O)C[C@H]1O (stereo not given in full),-10.5,7.3,2.3,-4.5,-10.7,80.9,109,106,80.3,68,,,,,,,,,,
OCC(O)Cc1ccc2c(c1)OCO2 (stereo not given),3.3,-4,3.8,52.3,-11.5,90.2,112,88.5,128,102,,,,,,,,,,
CC[C@H]1CN2CC[C@H]1C[C@@H]2[C@@H](O)c1ccnc2ccc(OC)cc12,11.9,6.1,8,-7.1,8.3,114,123,48,80.7,89.2,,,,,,,,,,
COc1ccc(CN2CCNCC2)c(OC)c1OC,17,32.1,26.1,10.5,13.6,138,118,79.9,99.3,130,,,,,,,,,,
CCOC(=O)c1cncn1[C@H](C)c1ccccc1,-33.9,-35.7,-0.6,16.7,-13.4,114,93.5,90.1,119,96.6,,,,,,,,,,
Cc1ccc(C[N+](C)(C)C)o1,-21.3,4,0.7,11.5,4.4,96.6,90.9,80.2,145,107,,,,,,,,,,
N#Cc1c(Cl)c(Cl)c(Cl)c(C#N)c1Cl,73.8,78.3,87.9,87.2,77.8,0,0,0,0,0,,,,,,,,,,
[O-][n+]1ccccc1[S-].[O-][n+]1ccccc1[S-].[Zn+2],49,62.7,64.1,93.1,98.8,51.1,16.5,4.2,0,0,,,,,,,,,,
C[C@]12CC[C@H]3[C@@H](CCC4=CC(=O)CC[C@@]43C)[C@@H]1CC[C@H]2O,-15.6,0.4,5.9,27,2.2,66.5,117,117,125,140,,,,,,,,,,
CC(C)(C#N)O[C@@H]1O[C@H](CO)[C@@H](O)[C@H](O)[C@H]1O,-18,8.3,5.1,2.7,-7.4,80.4,102,111,76.3,113,,,,,,,,,,
CC(=O)O[C@H]1CC[C@@]2(C)[C@H](CC[C@@H]3[C@@H]2CC[C@]2(C)[C@@H](C4=CC(=O)OC4)[C@@H](OC(C)=O)C[C@]32O)C1,17.8,8.6,34.4,45.2,4.8,71.9,52.7,18.2,12.2,47.2,,,,,,,,,,
CN(C)Cc1c[nH]c2ccccc12,3.2,20.6,21.7,20.5,20.5,78.7,80.8,125,108,96.2,,,,,,,,,,
Cc1ccc(/N=C/N(C)/C=N/c2ccc(C)cc2C)c(C)c1,-39.5,-15.9,-9.9,28.5,6.5,98.8,80.5,73.8,130,102,,,,,,,,,,
C[N+]1(C)CCc2cc3c(cc2[C@H]1[C@@H]1OC(=O)c2c1ccc1c2OCO1)OCO3,-13.9,-4.7,-10.3,-4.1,-5.9,99.3,142,110,64.5,109,,,,,,,,,,
COC[C@]12CN(C=O)[C@@H]3[C@@H]4[C@H](OC)[C@H]1[C@@]3([C@@H](OC)C[C@H]2O)[C@@H]1C[C@@]2(O)[C@H](OC(=O)c3ccccc3)[C@@H]1[C@]4(OC(C)=O)[C@@H](O)[C@@H]2OC,20.7,0,-0.8,45.8,-4.8,128,84.4,116,113,80,,,,,,,,,,
CC[C@H]1CN2CC[C@H]1C[C@H]2[C@H](O)c1ccnc2ccc(OC)cc12,8.3,7.6,8,13.8,18.2,130,66.3,67.9,94.6,113,,,,,,,,,,
COc1cc2c(c(OC)c1OC)-c1ccc(O)c(=O)cc1[C@@H](N)CC2,1.8,-4,7.2,-10.5,15.2,105,88,102,108,101,,,,,,,,,,
CN1CC[C@@]2(C)c3cc(O)ccc3N(C)[C@@H]12,18.4,6.9,7.2,14.6,22,126,94.5,92.7,121,69.5,,,,,,,,,,

# A second format for some results above.
Structure (SMILES)	loss of total cells (Human fetal astrocytes [1]; 1.39 µM) [%]	loss of total cells (Human fetal astrocytes [1]; 2.78 µM) [%]	loss of total cells (Human fetal astrocytes [1]; 5.56 µM) [%]	loss of total cells (Human fetal astrocytes [1]; 11.11 µM) [%]	loss of total cells (Human fetal astrocytes [1]; 22.22 µM) [%]	synaptosome phagocytosis (Human fetal astrocytes [2]; 1.39 µM) [%]	synaptosome phagocytosis (Human fetal astrocytes [2]; 2.78 µM) [%]	synaptosome phagocytosis (Human fetal astrocytes [2]; 5.56 µM) [%]	synaptosome phagocytosis (Human fetal astrocytes [2]; 11.11 µM) [%]	synaptosome phagocytosis (Human fetal astrocytes [2]; 22.22 µM) [%]	loss of total cells (Human fetal astrocytes [3]; 1.39 µM) [%]	loss of total cells (Human fetal astrocytes [3]; 2.78 µM) [%]	loss of total cells (Human fetal astrocytes [3]; 5.56 µM) [%]	loss of total cells (Human fetal astrocytes [3]; 11.11 µM) [%]	loss of total cells (Human fetal astrocytes [3]; 22.22 µM) [%]	synaptosome phagocytosis (Human fetal astrocytes [4]; 1.39 µM) [%]	synaptosome phagocytosis (Human fetal astrocytes [4]; 2.78 µM) [%]	synaptosome phagocytosis (Human fetal astrocytes [4]; 5.56 µM) [%]	synaptosome phagocytosis (Human fetal astrocytes [4]; 11.11 µM) [%]	synaptosome phagocytosis (Human fetal astrocytes [4]; 22.22 µM) [%]
CC1(C)C2CC(=O)[C@]3(C)C(CC[C@@]4(C)[C@H](c5ccoc5)OC(=O)C5OC543)[C@@]2(C)[C@@H](O)C[C@H]1O (stereo not given in full)	-10.5	7.3	2.3	-4.5	-10.7	80.9	109	106	80.3	68										
CC[C@H]1CN2CC[C@H]1C[C@H]2[C@H](O)c1ccnc2ccc(OC)cc12	8.3	7.6	8	13.8	18.2	130	66.3	67.9	94.6	113										

# (more compounds)

Structure (SMILES),loss of total cells (Human fetal astrocytes [1]; 1.39 µM) [%],loss of total cells (Human fetal astrocytes [1]; 2.78 µM) [%],loss of total cells (Human fetal astrocytes [1]; 5.56 µM) [%],loss of total cells (Human fetal astrocytes [1]; 11.11 µM) [%],loss of total cells (Human fetal astrocytes [1]; 22.22 µM) [%],synaptosome phagocytosis (Human fetal astrocytes [2]; 1.39 µM) [%],synaptosome phagocytosis (Human fetal astrocytes [2]; 2.78 µM) [%],synaptosome phagocytosis (Human fetal astrocytes [2]; 5.56 µM) [%],synaptosome phagocytosis (Human fetal astrocytes [2]; 11.11 µM) [%],synaptosome phagocytosis (Human fetal astrocytes [2]; 22.22 µM) [%],loss of total cells (Human fetal astrocytes [3]; 1.39 µM) [%],loss of total cells (Human fetal astrocytes [3]; 2.78 µM) [%],loss of total cells (Human fetal astrocytes [3]; 5.56 µM) [%],loss of total cells (Human fetal astrocytes [3]; 11.11 µM) [%],loss of total cells (Human fetal astrocytes [3]; 22.22 µM) [%],synaptosome phagocytosis (Human fetal astrocytes [4]; 1.39 µM) [%],synaptosome phagocytosis (Human fetal astrocytes [4]; 2.78 µM) [%],synaptosome phagocytosis (Human fetal astrocytes [4]; 5.56 µM) [%],synaptosome phagocytosis (Human fetal astrocytes [4]; 11.11 µM) [%],synaptosome phagocytosis (Human fetal astrocytes [4]; 22.22 µM) [%]
COC(=O)NC(=S)Nc1ccccc1NC(=S)NC(=O)OC,16.2,15.5,-0.7,13.8,10.6,103,48,107,137,103,,,,,,,,,,
C[C@]12CC[C@H](Cl)C[C@@H]1CC[C@@H]1[C@@H]2CC[C@]2(C)C(=O)CC[C@@H]12 [3beta-CHLOROANDROSTANONE],-20.7,-13.3,33.6,3.2,27,90,87.9,98.5,98.1,122,,,,,,,,,,
C[C@@H]1O[C@@H](O[C@@H]2C=C3CC[C@@H]4[C@H](CC[C@]5(C)[C@@H](c6ccc(=O)oc6)CC[C@]45O)[C@@]3(C)CC2)[C@H](O)[C@H](O)[C@H]1O,24.1,21,24.3,25.8,49.9,31.8,60,35.6,16.8,49.7,,,,,,,,,,
C=C1C[C@@H]2[C@H](CC[C@]3(C)C(=O)CC[C@@H]23)[C@@]2(C)C=CC(=O)C=C12,-24.2,-41.3,8.1,-4.9,-17.8,101,77.8,135,71.7,86.9,,,,,,,,,,
CC(N)C(O)c1ccccc1 (stereo not given),-16.3,-3.7,-20.2,-14.1,30.1,118,96,129,106,110,,,,,,,,,,
c1ccc(C2CC2)c(OCC2=NCCN2)c1 [Cirazoline hydrochloride],,,,,,,,,,,-4.6,3.4,9.9,-12.1,35.2,119,103,100,111,57.7
"O=[N+]([O-])c1ccc2nc(N3CCNCC3)ccc2c1 [Quipazine, 6-nitro-, maleate]",,,,,,,,,,,-0.9,-23.7,-12.4,-11.1,-32.9,86.2,84.9,91.9,98.1,85.5
c1ccc2c(N3CCNCC3)cccc2c1 [1-(1-Naphthyl)piperazine hydrochloride],,,,,,,,,,,-29.5,-12.3,-5.6,-1.9,-18.1,109,116,116,108,100
Clc1cnc(Oc2ccc(Oc3ncc(Cl)cc3Cl)cc2)c(Cl)c1,,,,,,,,,,,-23.9,-26.6,-9.6,-13.4,-20.6,116,118,106,110,116
CCCN(CCC)CCc1ccc(O)c(O)c1 [Dipropyldopamine hydrobromide],,,,,,,,,,,-18.8,-10.3,-9.1,-13,11.2,111,86.6,72.7,105,109
NNCc1cccc(O)c1 [3-Hydroxybenzylhydrazine dihydrochloride],,,,,,,,,,,-12.1,-29.9,11.5,-13,1.6,99.1,125,122,121,111
C[C@@H]1O[C@@H](O[C@H]2C[C@@H](O)[C@]3(CO)[C@H]4[C@H](O)C[C@]5(C)[C@@H]([C@@H]6COC(=O)C6)CC[C@]5(O)[C@@H]4CC[C@]3(O)C2)[C@H](O)[C@H](O)[C@H]1O [Dihydroouabain],,,,,,,,,,,19.7,11.1,1.6,7.6,23.2,165,154,150,81.6,63
N[C@H](CCCCCP(=O)(O)O)C(=O)O [D(-)-2-Amino-7-phosphonoheptanoic acid],,,,,,,,,,,-15,-9.3,7.8,6.7,3.4,96.4,96.1,95.6,87.3,93.1
C=CCN1CCC2(C)c3cc(O)ccc3CC1C2C (racemic) [(±)-N-Allylnormetazocine hydrochloride],,,,,,,,,,,-22,-14.7,-15.2,-13,-0.4,78.8,65.3,90.3,73.5,93.4
CC(C)C[C@H]1C(=O)N2CCC[C@H]2[C@]2(O)O[C@](NC(=O)[C@@H]3C=C4c5cccc6[nH]c(Br)c(c56)C[C@H]4N(C)C3)(C(C)C)C(=O)N12 [(+)-Bromocriptine methanesulfonate],,,,,,,,,,,3.3,-5.4,6,-18.4,-3.4,136,118,131,67.2,58.4
CCCCC/C=C\C/C=C\C/C=C\C/C=C\CCCC(=O)NCC(=O)O [N-arachidonylglycine],,,,,,,,,,,-3.3,2.1,5.1,-2.2,10.9,115,104,104,119,121
CCCN1CCC[C@@H](c2cccc(C#N)c2)C1 [S(-)-DS 121 hydrochloride],,,,,,,,,,,-0.4,10.3,9.9,-10.3,-0.8,97.4,77.1,86.2,96.8,81.4
CC1=NCCc2c1[nH]c1cc(O)ccc21,12.6,14.8,13,7.1,30.3,113,121,110,107,96.4,,,,,,,,,,
N#CC(C#N)=Cc1ccc(O)c(O)c1 [Tyrphostin 23],,,,,,,,,,,-19.6,-11.7,-5.1,-1.9,-18.1,108,105,120,110,121
